Data on 1 molecule can be found in PMC5430426.

No constants are given. Whether binding was seen depends on the method and setting. Some results given as binding are weak or reduced against the parent protein; the word gives no strength.

The assay has as its target T1, Ubiquinol-cytochrome-c reductase complex core protein 1 (mouse (endogenous in liver)) (UniProt Q9CZ13).
T1 sequence: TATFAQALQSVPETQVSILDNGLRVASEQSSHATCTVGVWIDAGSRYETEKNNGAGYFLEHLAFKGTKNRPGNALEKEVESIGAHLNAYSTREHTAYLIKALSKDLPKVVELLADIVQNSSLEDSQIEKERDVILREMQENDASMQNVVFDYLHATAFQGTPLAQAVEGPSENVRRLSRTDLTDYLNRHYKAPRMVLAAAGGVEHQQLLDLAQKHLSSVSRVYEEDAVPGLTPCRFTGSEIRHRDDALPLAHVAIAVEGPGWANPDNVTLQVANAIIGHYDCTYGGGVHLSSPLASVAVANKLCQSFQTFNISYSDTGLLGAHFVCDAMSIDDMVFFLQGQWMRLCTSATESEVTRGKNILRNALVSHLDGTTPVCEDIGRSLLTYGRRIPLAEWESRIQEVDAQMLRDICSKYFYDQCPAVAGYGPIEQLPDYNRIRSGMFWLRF
Nature of the assay: native gel or EMSA; blue native polyacrylamide gel electrophoresis of digitonin-solubilized isolated liver mitochondria (P95 mice, wild type and Bcs1l G/G, control or ketogenic diet), then immunoblotting of intact complexes and supercomplexes. (In general: Mobility shift assays separate free from complexed probe on a gel.)

B1: Rieske iron-sulfur protein (protein, UniProt Q9CR68 79-274)
chain: SHTDVKVPDFSDYRRAEVLDSTKSSKESSEARKGFSYLVTATTTVGVAYAAKNVVSQFVSSMSASADVLAMSKIEIKLSDIPEGKNMAFKWRGKPLFVRHRTKKEIDQEAAVEVSQLRDPQHDLDRVKKPEWVILIGVCTHLGCVPIANAGDFGGYYCPCHGSHYDASGRIRKGPAPLNLEVPAYEFTSDDVVVVG
On to B1, for which the binding result was “binds”.
